Test results reported in publication PMC6071836.
Results are given in words; binding and its absence hold for the method and conditions named. In cells and extracts the contact can be indirect. For some assays here: Tags and fused reporters may be left off the sequences shown.

T1: endogenous CMTR1 (human (endogenous in HeLa)) (UniProt Q8N1G2)
T1 sequence: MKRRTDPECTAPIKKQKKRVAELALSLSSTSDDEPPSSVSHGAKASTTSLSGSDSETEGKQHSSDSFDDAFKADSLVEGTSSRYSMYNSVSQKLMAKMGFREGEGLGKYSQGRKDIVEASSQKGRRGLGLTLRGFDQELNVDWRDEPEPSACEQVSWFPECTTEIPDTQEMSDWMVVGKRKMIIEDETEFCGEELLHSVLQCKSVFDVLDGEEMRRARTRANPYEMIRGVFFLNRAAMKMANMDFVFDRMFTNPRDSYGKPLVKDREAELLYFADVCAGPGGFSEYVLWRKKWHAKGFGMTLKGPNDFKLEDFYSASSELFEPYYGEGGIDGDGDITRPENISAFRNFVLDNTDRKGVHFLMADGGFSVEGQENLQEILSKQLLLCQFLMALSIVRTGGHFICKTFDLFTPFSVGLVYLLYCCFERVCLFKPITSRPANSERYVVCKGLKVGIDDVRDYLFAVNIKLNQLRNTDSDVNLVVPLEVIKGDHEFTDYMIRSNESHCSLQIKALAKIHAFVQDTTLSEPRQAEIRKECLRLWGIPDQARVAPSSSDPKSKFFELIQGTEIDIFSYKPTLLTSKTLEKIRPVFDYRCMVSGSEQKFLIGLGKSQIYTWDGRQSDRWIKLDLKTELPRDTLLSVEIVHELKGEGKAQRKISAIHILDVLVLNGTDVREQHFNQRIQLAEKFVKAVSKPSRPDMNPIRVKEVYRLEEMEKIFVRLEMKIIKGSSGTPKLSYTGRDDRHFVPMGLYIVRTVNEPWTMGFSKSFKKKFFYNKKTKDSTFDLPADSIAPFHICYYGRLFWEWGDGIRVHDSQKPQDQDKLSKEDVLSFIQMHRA

T2: GFP-CMTR1 wild-type (WT) (human), Q8N1G2
T2 chain: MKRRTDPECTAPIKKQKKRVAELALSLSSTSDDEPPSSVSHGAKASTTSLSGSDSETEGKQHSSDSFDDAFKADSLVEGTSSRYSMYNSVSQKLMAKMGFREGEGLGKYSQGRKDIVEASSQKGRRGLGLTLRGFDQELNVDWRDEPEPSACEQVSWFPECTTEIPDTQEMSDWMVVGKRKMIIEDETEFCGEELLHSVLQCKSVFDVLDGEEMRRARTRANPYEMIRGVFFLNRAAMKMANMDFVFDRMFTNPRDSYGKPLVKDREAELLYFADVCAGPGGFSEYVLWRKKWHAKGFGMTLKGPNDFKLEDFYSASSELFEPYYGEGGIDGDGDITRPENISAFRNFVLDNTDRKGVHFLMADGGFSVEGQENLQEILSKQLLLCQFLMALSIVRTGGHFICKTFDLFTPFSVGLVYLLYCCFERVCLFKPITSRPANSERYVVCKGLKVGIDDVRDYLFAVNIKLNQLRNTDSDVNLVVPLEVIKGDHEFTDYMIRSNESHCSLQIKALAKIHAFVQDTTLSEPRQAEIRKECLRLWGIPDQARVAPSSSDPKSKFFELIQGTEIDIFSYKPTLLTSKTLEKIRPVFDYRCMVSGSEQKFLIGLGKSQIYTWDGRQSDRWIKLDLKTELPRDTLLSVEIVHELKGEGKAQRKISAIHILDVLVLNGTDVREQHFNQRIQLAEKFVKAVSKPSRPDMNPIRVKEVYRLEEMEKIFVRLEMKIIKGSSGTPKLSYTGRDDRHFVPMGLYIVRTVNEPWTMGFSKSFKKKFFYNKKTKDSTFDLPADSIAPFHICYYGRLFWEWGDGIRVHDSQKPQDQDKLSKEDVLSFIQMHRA

B1: DHX16 (enzyme, UniProt O60231 1-1041)
chain: MATPAGLERWVQDELHSVLGLSERHVAQFLIGTAQRCTSAEEFVQRLRDTDTLDLSGPARDFALRLWNKVPRKAVVEKPARAAEREARALLEKNRSYRLLEDSEESSEETVSRAGSSLQKKRKKRKHLRKKREEEEEEEASEKGKKKTGGSKQQTEKPESEDEWERTERERLQDLEERDAFAERVRQRDKDRTRNVLERSDKKAYEEAQKRLKMAEEDRKAMVPELRKKSRREYLAKREREKLEDLEAELADEEFLFGDVELSRHERQELKYKRRVRDLAREYRAAGEQEKLEATNRYHMPKETRGQPARAVDLVEEESGAPGEEQRRWEEARLGAASLKFGARDAASQEPKYQLVLEEEETIEFVRATQLQGDEEPSAPPTSTQAQQKESIQAVRRSLPVFPFREELLAAIANHQVLIIEGETGSGKTTQIPQYLFEEGYTNKGMKIACTQPRRVAAMSVAARVAREMGVKLGNEVGYSIRFEDCTSERTVLRYMTDGMLLREFLSEPDLASYSVVMVDEAHERTLHTDILFGLIKDVARFRPELKVLVASATMDTARFSTFFDDAPVFRIPGRRFPVDIFYTKAPEADYLEACVVSVLQIHVTQPPGDILVFLTGQEEIEAACEMLQDRCRRLGSKIRELLVLPIYANLPSDMQARIFQPTPPGARKVVVATNIAETSLTIEGIIYVLDPGFCKQKSYNPRTGMESLTVTPCSKASANQRAGRAGRVAAGKCFRLYTAWAYQHELEETTVPEIQRTSLGNVVLLLKSLGIHDLMHFDFLDPPPYETLLLALEQLYALGALNHLGELTTSGRKMAELPVDPMLSKMILASEKYSCSEEILTVAAMLSVNNSIFYRPKDKVVHADNARVNFFLPGGDHLVLLNVYTQWAESGYSSQWCYENFVQFRSMRRARDVREQLEGLLERVEVGLSSCQGDYIRVRKAITAGYFYHTARLTRSGYRTVKQQQTVFIHPNSSLFEQQPRWLLYHELVLTTKEFMRQVLEIESSWLLEVAPHYYKAKELEDPHAKKMPKKIGKTREELG
B2: HA-CMTR1 WT, Q8N1G2 1-835 (enzyme)
chain: MKRRTDPECTAPIKKQKKRVAELALSLSSTSDDEPPSSVSHGAKASTTSLSGSDSETEGKQHSSDSFDDAFKADSLVEGTSSRYSMYNSVSQKLMAKMGFREGEGLGKYSQGRKDIVEASSQKGRRGLGLTLRGFDQELNVDWRDEPEPSACEQVSWFPECTTEIPDTQEMSDWMVVGKRKMIIEDETEFCGEELLHSVLQCKSVFDVLDGEEMRRARTRANPYEMIRGVFFLNRAAMKMANMDFVFDRMFTNPRDSYGKPLVKDREAELLYFADVCAGPGGFSEYVLWRKKWHAKGFGMTLKGPNDFKLEDFYSASSELFEPYYGEGGIDGDGDITRPENISAFRNFVLDNTDRKGVHFLMADGGFSVEGQENLQEILSKQLLLCQFLMALSIVRTGGHFICKTFDLFTPFSVGLVYLLYCCFERVCLFKPITSRPANSERYVVCKGLKVGIDDVRDYLFAVNIKLNQLRNTDSDVNLVVPLEVIKGDHEFTDYMIRSNESHCSLQIKALAKIHAFVQDTTLSEPRQAEIRKECLRLWGIPDQARVAPSSSDPKSKFFELIQGTEIDIFSYKPTLLTSKTLEKIRPVFDYRCMVSGSEQKFLIGLGKSQIYTWDGRQSDRWIKLDLKTELPRDTLLSVEIVHELKGEGKAQRKISAIHILDVLVLNGTDVREQHFNQRIQLAEKFVKAVSKPSRPDMNPIRVKEVYRLEEMEKIFVRLEMKIIKGSSGTPKLSYTGRDDRHFVPMGLYIVRTVNEPWTMGFSKSFKKKFFYNKKTKDSTFDLPADSIAPFHICYYGRLFWEWGDGIRVHDSQKPQDQDKLSKEDVLSFIQMHRA

What was measured:
[1] = target: T1, endogenous CMTR1 (human (endogenous in HeLa)); experiment: co-IP; endogenous proteins, antibody on protein-G Sepharose, extracts of HeLa, HCC1809, U2OS and HEK293 cells, 2 h at 4°C, washes with 0.1 M NaCl, Western blot; sheep IgG as control; RNase A treatment of the IP in Fig 1F
[2] = target: T2, GFP-CMTR1 wild-type (WT) (human), Q8N1G2; experiment: co-IP; tagged proteins expressed in HeLa cells, IP from cell extracts by the tag (anti-GFP, anti-HA or anti-FLAG), washes with lysis buffer containing 0.1 M NaCl, Western blot; RNase A treatment of the IP in Fig S6B; conditions: remark: other sources report otherwise

Row | Binder | binding [1] | binding [2]
1 | B1 | no binding | 
2 | B2 |  | no binding
